Among all 360,000 compounds or so, about 7,500 (2.1%) were called active. Inconclusive results, whose numbers are uncertain, are shown with a selection of clear calls. Calls come from the whole dose curve; as a rule, active = well fitted inhibition curve with a large enough effect; inconclusive = small, poorly fitted or top-dose-only effect, or effect the other way; inactive = flat fitted curve, though single readings scatter. Where the call is inconclusive, the potency comes from a doubtful curve fit.
assay: Nrf2 qHTS screen for inhibitors; details: A549 ARE-Fluc reporter, luciferase luminescence, 18-24 h; series mostly up to 46 µM; note: nearly all actives have a fitted effect of over 60% in size
In short: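 In this cell-based qHTS, ARE-driven firefly luciferase in A549 cells reports Nrf2 activity; the luminescent signal after BugLite lysis is the measured value, with a prior CellTiter-Fluor read for cell health.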
Potency is the fitted concentration of half-maximal effect.

| Structure (SMILES) | Potency |
| --- | --- |
| COc1ccccc1-c1c(C)oc2cc(OC(=O)c3ccco3)ccc2c1=O | inactive |
| COc1ccc(NS(=O)(=O)c2cc(NC(=O)c3cc(F)c(F)cc3Cl)ccc2N2CCOCC2)cc1 | inconclusive: 11.6 µM [falling, partial curve, poor fit] |
| COCCCNC(=O)c1oc2c(c1C)-c1nn(Cc3ccc(Cl)cc3)cc1CC2 | inactive |
| CC(C)(Oc1ccc(Cl)cc1)C(=O)NC1CCCCC1 | inactive |
| COc1ccc(C(=O)Nc2ccc(S(=O)(=O)Nc3nccc(C)n3)cc2)cc1[N+](=O)[O-] | inconclusive: 29.1 µM [falling, single point] |
| COc1ccc(-c2nn(-c3ccccc3)cc2/C=C/C(=O)N(C)CC(=O)Nc2cccc(F)c2)cc1OC | inconclusive: 20.6 µM [falling, single point] |
| CCOC(=O)c1cc(-c2ccccc2)n(CC(=O)Nc2ccc(OCC)cc2)c1C | inconclusive: 23.1 µM [falling, partial curve, poor fit] |
| CCc1ccccc1NC(=O)N1CCC(CN2CCc3ccccc3C2)CC1 | inconclusive: 8.2 µM [activator, partial curve, poor fit] |
| COc1ccc(NS(=O)(=O)c2cc(NC(=O)c3ccc(=O)[nH]c3)ccc2C)cc1 | inactive |
| COCCCNC(=O)CNC(=S)N(Cc1ccc(F)cc1)C1CCCCC1 | inconclusive: 2.31 µM [activator, single point] |
| Nc1cccc2c1C(=O)N(Cc1nnc(-c3ccccc3Br)o1)C2=O | inconclusive: 32.6 µM [falling, single point] |
| COc1ccc(C(=O)/C=C/Nc2cc(C)on2)cc1 | inconclusive: 11.6 µM [activator, partial curve] |
| CN(C)S(=O)(=O)c1cc(NC(=O)c2ccc(-n3ccnc3)c([N+](=O)[O-])c2)ccc1Cl | active: 18.4 µM |
| Nc1nc(SCC(=O)Nc2cccc(C(F)(F)F)c2)n[nH]1 | active: 18.4 µM |
| CCC(=O)N(c1nnc(SCC(=O)c2ccc[nH]2)s1)C1CC1 | inactive |
| N#Cc1c(N)n(CCCN2CCOCC2)c2nc3ccccc3nc12 | inconclusive: 6.51 µM [falling, single point] |
| COc1ccc(-c2c[n+](CC(=O)OC3CC(C)CCC3C(C)C)c3n2CCC3)cc1 (centres undefined) | inconclusive: 18.4 µM [falling, single point] |
| Cc1cc(C)c(S(=O)(=O)Nc2ccccc2-c2ccccc2)c(C)c1 | inconclusive: 29.1 µM [falling, single point] |
| CC1CCCN(C(=O)c2ccc([N+](=O)[O-])o2)C1 (centres undefined) | inactive |
| Cc1ccsc1CN(C)C(=O)C1CCC(=O)N(CCc2cccc(F)c2)C1 (centres undefined) | inconclusive: 9.2 µM [activator, partial curve] |
| COc1cccc(-n2c(=O)c3c(C)c(C)sc3n(CC(=O)Nc3ccccc3OC)c2=O)c1 | inactive |
| CSc1nsc(SCC(=O)N2CCCCC2)n1 | inconclusive: 9.2 µM [activator, partial curve] |

| Structure (SMILES) | Potency |
| --- | --- |
| COc1cc(C(=O)N(Cc2ccco2)Cc2cc3ccccc3[nH]c2=O)cc(OC)c1OC | inconclusive: 29.1 µM [falling, single point] |
| Cc1cccc(NC(=O)CCc2c(C)nn(-c3ccc(N4CCCCC4)nn3)c2C)c1 | inactive |
| S=C1NCCc2ccccc2C1c1ccccc1 (centres undefined) | inactive |
| O=C(NCc1ccncc1)C1CCCN(S(=O)(=O)c2cc(Cl)ccc2Cl)C1 (centres undefined) | inconclusive: 29.1 µM [falling, single point] |
| COc1ccc(N2CCN(C(=O)c3cc(=O)c4cc(C)c(C)cc4o3)CC2)cc1 | inconclusive: 29.1 µM [falling, single point] |
| Cc1cccc2cc3c(NC(=O)c4ccccn4)nn(C)c3nc12 | inconclusive: 0.0052 µM [activator, full curve, poor fit] |
| Cc1ccccc1CC1C(=O)Nc2ccc(Br)cc21 (centres undefined) | inactive |
| CC1(c2nnc(-c3cccc(Cl)c3)o2)CC(c2ccccc2F)=NO1 (centres undefined) | inconclusive: 29.1 µM [activator, single point] |
| CCc1ccc(CNCc2c(C(=O)O)c(C)n(Cc3c(F)cccc3Cl)c2C)cc1 | inactive |
| Cn1c(=O)n(C)c2cc(N3CCOCC3)c(NS(=O)(=O)c3ccc(C(C)(C)C)cc3)cc21 | inconclusive: 23.1 µM [falling, single point] |
| O=C(Nc1ccccc1-c1nc2ccccc2s1)c1cccnc1Cl | inconclusive: 29.1 µM [falling, single point] |
| COc1ccc(NC(=O)CSC2=Nc3ccccc3C3=NC(CCC(=O)NCc4ccc(F)cc4)C(=O)N23)cc1Cl (centres undefined) | inconclusive: 11.6 µM [falling, partial curve] |
| CCCCC(CC)CNC(=O)CN(C)S(=O)(=O)c1ccc2c(c1)c(=O)n(C)c(=O)n2C (centres undefined) | inactive |
| FC(F)(F)c1cc(CCN2C(=S)NC[C@@H]2CC2CCCCC2)cc(C(F)(F)F)c1 | inconclusive: 7.31 µM [falling, partial curve] |
| O=C(c1ccc(S(=O)(=O)Cc2ccccc2Cl)c([N+](=O)[O-])c1)N1CCN(c2ccccn2)CC1 | inconclusive: 25.9 µM [falling, single point] |
| Cc1nn(C)c2c1c(-c1ccccc1)cc(=O)n2Cc1ccccc1Cl | inactive |
| CCN(CC(=O)Nc1ccccc1C(F)(F)F)C(=O)CCc1c(C)[nH]c(=O)c(C#N)c1C | inconclusive: 32.6 µM [falling, single point] |
| Oc1ccc(/C=N/Nc2cc(N3CCCC3)nc(N3CCCC3)n2)cc1 | inconclusive: 9.2 µM [falling, partial curve] |
| O=C(c1ccc(Cl)c([N+](=O)[O-])c1)N1CCN(C(=O)c2ccco2)CC1 | inactive |
| Cc1cccc(C)c1N=C1NN=C(c2ccccc2F)CS1 | inconclusive: 29.1 µM [falling, single point] |
| C=CC(=O)N(CCC)C(c1ccccc1)c1ccccc1OC (centres undefined) | inconclusive: 29.1 µM [falling, partial curve, poor fit] |
| COc1cc(C(=O)Nc2ccc(S(=O)(=O)N3CCOCC3)cc2)c([N+](=O)[O-])cc1OC | inconclusive: 16.4 µM [falling, partial curve, poor fit] |

Compounds from the list above with a CF3 group (3):

| Structure (SMILES) | Potency |
| --- | --- |
| Nc1nc(SCC(=O)Nc2cccc(C(F)(F)F)c2)n[nH]1 | active: 18.4 µM |
| FC(F)(F)c1cc(CCN2C(=S)NC[C@@H]2CC2CCCCC2)cc(C(F)(F)F)c1 | inconclusive: 7.31 µM [falling, partial curve] |
| CCN(CC(=O)Nc1ccccc1C(F)(F)F)C(=O)CCc1c(C)[nH]c(=O)c(C#N)c1C | inconclusive: 32.6 µM [falling, single point] |

— PubChem BioAssay AID504444 (National Center for Advancing Translational Sciences (NCATS), 2011)
